{"source": "patent US20230043518A1", "about": "“CANCER IMMUNOTHERAPY” (AXELIA ONCOLOGY PTY LTD, priority 2019, published 2023)", "key": {"B16F10 (melanoma)": {"test_system": "B16F10 (melanoma)", "test": "B16F10 subcutaneous tumour model, compound 1 with anti-PD1", "format": "in vivo, mouse", "conditions": "compound 1 intratumoral (25, 50 μg) combined with anti-PD1; FIG. 2B"}, "[1]": {"test_system": "MC38 (colon adenocarcinoma)", "test": "MC38 subcutaneous tumour model, compound 1 with anti-PD1", "format": "in vivo, mouse", "conditions": "compound 1 intratumoral (5, 25, 50 μg) combined with anti-PD1 i.p.; Kaplan-Meier, FIG. 1B"}}, "note": "“Also recorded” adds a separate entry of the source. Not every detail of the peptide structures is certain; ends, links or a residue may be inferred. At least one compound was matched to its structure with a doubt left."}
{"smiles": "CCCCCCCCCCCCCCCC(=O)OCC(CSCC(N)C(=O)N[C@@H](CO)C(=O)NCCOCCOCCOCCOCCOCCOCCOCCOCCOCCOCCOCCOCCC(=O)NCC(N)=O)OC(=O)CCCCCCCCCCCCCCC", "note": "(some centres unmarked) [compound 1]", "values": [{"measurement": "survival of B16F10-bearing mice", "setting": "B16F10 (melanoma)", "value": "improved survival; also recorded: improves the efficacy of anti-PD1 immunotherapy"}, {"measurement": "survival of MC38 tumour-bearing mice", "setting": "[1]", "value": "significantly improved survival; also recorded: improves the efficacy of anti-PD1 immunotherapy"}]}
